The nature of the assay: qHTS Assay for Lipid Storage Modulators in Drosophila S3 Cells.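 As to cell number change: cells counted by Cell Tracker Red CMTPX staining in the red channel.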 The conditions noted are these: BODIPY lipid droplet fluorescence, 18-24 h; for cell number change: measured here: cell count max response, cells fed with added oleic acid. The essentials: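 Drosophila S3 cells loaded with oleic acid (400 uM, as added) and compounds at several concentrations; lipid droplets imaged by 488-nm laser-scanning cytometry, 500–530 nm intensity and object ratio to cell channel. Percent activity normalized to 20 uM Triacsin C.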
(In qHTS, concentration-response curves come from the screen itself.)

Setting [1] is: measured here: lipid fluorescence (Fed channel) AC50, cells fed with added oleic acid.
[2] abbreviates: measured here: cell number channel AC50, cells fed with added oleic acid.

Some of the results follow. The main result of the screen is listed elsewhere. These columns were measured beside it and carry no call. The list favours compounds with an active or inconclusive main result. The note in brackets gives the kind of curve behind each potency; many fits are weak.

In the case of `CN(C)/C(CN1CCCCC1)=C1\N=C(c2ccccc2)OC1=O`, the cell number change came out at 12.1%. In addition, the AC50 (commonly the concentration at which the activity in the assay is half-maximal) under setting [1] is 29.1 µM [rising, single point]. In the case of `Cc1c(O)ccc2c(CN3CCOCC3)cc(=O)oc12`, the cell number change was 25.4%. Moreover, under setting [1], the AC50 is 18.4 µM [falling, single point]. Take `Cn1c(SCC(=O)N2CCCc3ccccc32)nnc1-c1ccco1`: the cell number change was -14%. Further, the AC50 under setting [1] was 1.64 µM [falling, full curve, poor fit].

Turning to `COCCNc1ncnc2c1nc1n2CCCC1`, the cell number change stood at 22.5%. Besides, under setting [1], the concentration at half-maximal activity (AC50) is 29.1 µM [rising, single point]. Turning to `COc1cc(-c2nnc(SCC(=O)OC3CCCCC3)o2)cc(OC)c1OC`, the cell number change amounted to 1.29%. In the case of `O=S(=O)(c1cccs1)N1CCN(c2ccc(F)cc2)CC1`, the cell number change is -15.1%. Moreover, the AC50 under setting [1] is 6.51 µM [falling, partial curve, poor fit]. As for `C/C=C/c1ccc(OCCCNC)c(OC)c1`, the cell number change is -15.5%. In the case of `CC(NC(=O)CCNC(=O)c1ccc(Br)cc1)c1ccc(S(N)(=O)=O)cc1` (configuration not stated), the cell number change stood at 3.5%. Regarding `CC(c1ccon1)N(C)Cc1cn(C)nc1-c1ccc2c(c1)OCCO2` (configuration not stated), the cell number change was -4.13%. Under setting [1], the half-maximal activity concentration (AC50) is 0.651 µM [falling, single point]. As to `CNC(=O)c1c(NC(=O)CCS(=O)(=O)c2ccccc2)sc2c1CCN(C(=O)OC)C2`, the AC50 under setting [2] was 0.731 µM [rising, full curve, poor fit]. On to `CC(=O)c1ccc(S(=O)(=O)N2CCN(C(=O)c3ccc(-n4cncn4)c([N+](=O)[O-])c3)CC2)cc1`, for which the cell number change is -34.6%. Moreover, the AC50 under setting [1] was 0.00411 µM [falling, full curve, poor fit]. On to `COc1ccc(NC(=O)COC(=O)C2CC(=O)N(CCc3ccc(OC)c(OC)c3)C2)cc1Cl` (configuration not stated), for which the cell number change was 4.15%. Moreover, the concentration at half-maximal activity (AC50) under setting [1] was 0.00461 µM [rising, full curve, poor fit]. In the case of `CCOC(=O)c1cc(-c2ccccc2)sc1NC(=O)C(C)OC(=O)c1cccnc1Cl` (configuration not stated), the cell number change stood at 17.7%. In addition, the AC50 under setting [2] was 0.082 µM [rising, full curve, poor fit]. Consider `O=C(Nc1ccc(N2CCN(C(=O)c3ccccc3)CC2)cc1)c1ccc2c(c1)OCCO2`, for which the cell number change was -35.8%. Moreover, the AC50 under setting [2] was 9.2 µM [falling, partial curve, poor fit].

For the compound `O=C(O)CCN(Cc1ccccc1)S(=O)(=O)c1c(Cl)cccc1Cl`, the cell number change amounted to 22%. The half-maximal activity concentration (AC50) under setting [1] is 0.00461 µM [rising, full curve, poor fit]. `O=C(O)c1cc(-c2ccccc2)n(-c2ccc(Cl)cc2)n1`: the cell number change was -46.7%. Further, the half-maximal activity concentration (AC50) under setting [2] is 29.1 µM [falling, single point]. In addition, the AC50 under setting [1] was 29.1 µM [falling, single point].

With `CCOCCCn1c(SCC(=O)Nc2cccc(OC)c2)nc2ccccc2c1=O`, the cell number change is -14.2%. For the same compound, the AC50 under setting [1] is 29.1 µM [falling, single point].

As to `O=[N+]([O-])c1ccc(Oc2ccc(S(=O)(=O)N3CCOCC3)cc2)cc1`, the cell number change was -16.2%. Besides, the AC50 under setting [1] is 29.1 µM [falling, partial curve, poor fit]. Turning to `CCN(CC)C(=O)c1ccc(COc2ccc(Cl)c(C)c2)o1`, the cell number change is -18.2%. The AC50 under setting [1] was 29.1 µM [falling, single point]. As to `O=C(CN1CCN(CC(=O)Nc2ccccn2)CC1)Nc1ccccn1`, the concentration at half-maximal activity (AC50) under setting [1] was 32.6 µM [falling, partial curve].

For `COC(=O)Nc1ccc(S(=O)(=O)N2CCCc3ccccc32)cc1`, under setting [2], the AC50 was 6.51 µM [rising, single point]. For `CC(=O)c1cn(CC(=O)Nc2ccccc2C(F)(F)F)c2ccccc12`, the cell number change is -8.5%. Also, the AC50 under setting [1] was 3.66 µM [rising, full curve]. Take `Cc1c(N2C(=O)c3ccc(Br)cc3C2=O)c(=O)n(-c2ccccc2)n1C`: under setting [1], the AC50 was 0.184 µM [rising, full curve, poor fit]. As for `Cc1ccc(/C=C/C(=O)O)cc1S(=O)(=O)NC1CCS(=O)(=O)C1` (configuration not stated), the cell number change stood at 30.7%. Turning to `Cc1nnc(SCC2=C(C(=O)O)N3C(=O)C(NC(=O)Cn4nc(C(F)F)c(Cl)c4C)C3SC2)s1` (configuration not stated), the cell number change was -1.25%. The concentration at half-maximal activity (AC50) under setting [1] was 0.0731 µM [falling, full curve, poor fit]. With `CCn1nccc1C(=O)Nc1ccc(C(=O)OC(C)C)cc1`, the cell number change is 2.19%. The concentration at half-maximal activity (AC50) under setting [1] was 18.4 µM [rising, single point]. For the compound `O=C(Nc1cccc(S(=O)(=O)Nc2ccccc2Cl)c1)c1ccc(Cl)nc1`, the cell number change was determined as 1.71%. For the same compound, the concentration at half-maximal activity (AC50) under setting [1] was 2.06 µM [rising, partial curve]. As to `Cc1nc(NC(C)c2ccccc2)sc1C(=O)Nc1ccccc1` (configuration not stated), the cell number change is -17.4%. In addition, the AC50 under setting [1] is 0.00517 µM [falling, full curve, poor fit].

On to `COc1ccc(-c2cc(=O)oc3c(C)c(OCc4nn[nH]n4)ccc23)cc1`, for which the cell number change was 10.5%. The AC50 under setting [1] was 3.26 µM [falling, partial curve, poor fit]. Turning to `Cc1cc(N)ccc1-n1c(C)ccc1C`, the cell number change amounted to 30.9%. The half-maximal activity concentration (AC50) under setting [2] is 4.11 µM [rising, full curve]. Also, under setting [1], the half-maximal activity concentration (AC50) was 0.116 µM [rising, single point].

In the case of `COc1cccc(C2=NOC(C(=O)Nc3cccnc3)C2)c1` (configuration not stated), the cell number change was -13.5%.

`COCCCNC(=O)CCn1c(=O)c2ccccc2n(CC(=O)Nc2c(C)cccc2C)c1=O`: the cell number change is 2.81%. Moreover, the AC50 under setting [1] was 2.59 µM [rising, partial curve]. `O=C(NCCCN1CCOCC1)c1sc2cc(F)ccc2c1Cl`: the cell number change stood at 23.2%. For the compound `CO/N=C\c1cc(C(=O)c2ccc(Cl)cc2Cl)cn1C`, the cell number change is 24.9%. Besides, the AC50 under setting [1] is 20.6 µM [rising, single point]. Turning to `CCN=c1sc(C(=O)OC)cc(=O)n1CC`, the AC50 under setting [1] was 6.51 µM [falling, partial curve, poor fit].

Consider `COc1cc(-n2c(=O)c3ccccc3n(CC(=O)OCc3ccccc3)c2=O)cc(OC)c1OC`, for which the cell number change is -3.94%. Further, the half-maximal activity concentration (AC50) under setting [1] was 5.8 µM [rising, single point]. Take `O=C(COC(=O)c1cccnc1Cl)NCCCc1ccccc1`: the cell number change was -34.7%. In addition, the AC50 under setting [2] is 20.6 µM [falling, single point]. Besides, the half-maximal activity concentration (AC50) under setting [1] is 20.6 µM [falling, single point]. As for `COc1ccc(CN(C(=S)Nc2ccccc2)C2CC(=O)N(c3ccc(F)cc3)C2=O)cc1` (configuration not stated), the cell number change was -10.1%. Moreover, the concentration at half-maximal activity (AC50) under setting [2] is 0.0326 µM [falling, full curve, poor fit]. Consider `CN1CCN(c2ccc(NC(=O)Cc3ccccc3)cc2)CC1`, for which the cell number change amounted to 24.4%. On to `CC1=C(C(=O)OC2CCCCC2)C(c2cccs2)n2c(nc3ccccc32)N1` (configuration not stated), for which the cell number change worked out at 0.842%. Besides, the AC50 under setting [1] was 20.6 µM [rising, single point].

For the compound `Cc1c(C(=O)NCc2ccco2)oc2ccccc12`, the cell number change was determined as 2.61%. Further, the AC50 under setting [1] is 6.51 µM [falling, single point]. On to `O=C(Cn1nc(C(=O)O)c2ccccc2c1=O)Nc1ccc(F)cc1`, for which the cell number change came to 18.1%. Also, the AC50 under setting [1] was 29.1 µM [falling, single point]. Take `CC(=O)c1ccc(N2CCN(C(=S)Nc3ccc(Oc4ccccc4)cc3)CC2)cc1`: the cell number change was determined as 18.3%. The half-maximal activity concentration (AC50) under setting [2] was 4.61 µM [rising, single point].

With `Cc1ccccc1-c1nc(CS(=O)(=O)CC(=O)NCCCN2C(C)CCCC2C)c(C)o1` (configuration not stated), the cell number change turned out to be 11.4%. The AC50 under setting [2] was 0.13 µM [falling, full curve, poor fit]. Under setting [1], the half-maximal activity concentration (AC50) was 0.731 µM [falling, full curve, poor fit]. Regarding `C=C(C)C1CC=C(C)/C(=N/NC(=O)COc2cccc(C)c2)C1` (configuration not stated), the cell number change is -27.2%. Moreover, under setting [1], the concentration at half-maximal activity (AC50) was 8.2 µM [falling, partial curve]. Turning to `Cc1ccc(-c2nnc(-c3ccc(NC(=O)c4cccs4)cc3)o2)cc1`, the cell number change is -10.2%. Consider `COc1ccc(C(=O)NCCS(=O)(=O)N2CCC3(CC2)OCCO3)cc1`, for which the cell number change is 41.3%. Besides, the AC50 under setting [2] is 29.1 µM [rising, single point]. For `CCNC(=O)C1CC(=O)N(Cc2ccc(F)cc2)C(=Nc2ccc(OC)cc2)S1` (configuration not stated), the cell number change was -4.77%. Moreover, the concentration at half-maximal activity (AC50) under setting [1] was 1.64 µM [rising, partial curve, poor fit].

Take `CCOC(=O)c1sc(=N)n(-c2ccc(OC)cc2)c1C`: the cell number change was -26.2%. Moreover, under setting [2], the AC50 is 0.0058 µM [falling, full curve, poor fit]. Turning to `CCN(CC)C(=O)c1c2c(nc3ccccc13)-c1ccccc1CC2`, the half-maximal activity concentration (AC50) under setting [2] is 2.91 µM [rising, single point] and the concentration at half-maximal activity (AC50) under setting [1] was 0.82 µM [rising, full curve, poor fit].

In the case of `CCOc1nc(NCCc2ccc(OC)c(OC)c2)nc(N2CCN(c3ccc(OC)cc3)CC2)n1`, the cell number change turned out to be 16.1%. The half-maximal activity concentration (AC50) under setting [2] is 0.103 µM [rising, full curve, poor fit]. As for `N#Cc1cnn(-c2ccccc2)c1N`, the cell number change stood at 3.36%. In addition, the AC50 under setting [1] is 18.4 µM [rising, single point]. `CCCNC(=O)c1ccc(N2CCC3(CC2)CC(c2ccccc2)=NO3)c(N)c1`: the cell number change came out at 5.09%. Further, the AC50 under setting [1] was 0.259 µM [rising, full curve, poor fit]. As for `O=C(Nc1ccc2oc(=O)ccc2c1)c1cc([N+](=O)[O-])ccc1N1CCOCC1`, the cell number change worked out at 13%. Besides, the AC50 under setting [2] is 6.51 µM [rising, single point]. In addition, under setting [1], the AC50 was 3.66 µM [rising, single point]. As to `Cc1cc(O)c(C2=Nc3ccccc3SC(c3ccc(Cl)cc3)C2)c(=O)o1` (configuration not stated), the cell number change worked out at 10.5%. Besides, under setting [1], the half-maximal activity concentration (AC50) is 29.1 µM [rising, partial curve, poor fit]. Take `CCOc1ccc(-c2ccc(C=O)o2)c([N+](=O)[O-])c1`: the cell number change turned out to be 27.4%. Moreover, the AC50 under setting [1] was 14.6 µM [rising, single point]. As for `CCc1cccc(C)c1N=Cc1c(O)c2ccccc2oc1=O`, the cell number change was -4.99%. The AC50 under setting [1] is 29.1 µM [falling, single point].

With `C=C(C)COc1ccc2c(C)c(CC(=O)OC)c(=O)oc2c1C`, the half-maximal activity concentration (AC50) runs as follows: under setting [2], 0.58 µM [falling, single point]; under setting [1], 0.58 µM [falling, single point]. For the compound `COCc1[nH]nc2c1C(c1ccnc3ccccc13)C(C#N)=C(N)O2` (configuration not stated), the cell number change is -20.6%. The AC50 under setting [1] was 0.651 µM [rising, partial curve, poor fit]. On to `N#C/C(=C/c1cccn1-c1cccc(C(=O)O)c1)c1ccc(F)cc1`, for which the cell number change was found to be 20.6%. Besides, the concentration at half-maximal activity (AC50) under setting [2] was 0.146 µM [falling, full curve, poor fit].

The record behind these values is PubChem BioAssay AID2685 (National Center for Advancing Translational Sciences (NCATS), 2010).
